Test results taken from PubChem BioAssay (EPA / NIEHS).
The shares of active, inactive and inconclusive entries below differ from those in the screen. Potencies of inconclusive entries are doubtful fits and often do not repeat. Active and inactive are the calls of the source. The calls were made as follows: active = hit-call score of the fitted dose curve at least 0.9, where 1 is the maximum; inconclusive = response in the unintended direction; inactive = score below 0.9.

Experiment: CCTE_Shafer_MEA_acute_AB: CCTE's Alamar Blue Assay for Cytotoxicity in the Neural Acute Assay, Shafer Lab (AID 2284069);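 also: active compounds lower the viability signal compared with DMSO wells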
In short: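 Read-out: resazurin fluorescence (ex 544, em 590 nm) after CTB reagent at 1:6 dilution in fresh media. Cells: primary rat cortical neuron networks, DIV 13 or 15, chemically exposed on MEA plates; DMSO as negative control/baseline.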

Row | SMILES | outcome | AC50
1 | O=C(c1ccc(O)cc1O)c1ccc(O)cc1O | inactive | 
2 | CC1=C(C)S(=O)(=O)CCS1(=O)=O |  | inconclusive: 20 µM
3 | CCCCOC(=O)c1ccc(O)cc1 |  | inconclusive: 20 µM
4 | Oc1cc2ccccc2c2ccccc12 |  | active: 8 µM
5 | CC1(C)C(C=C(Cl)Cl)C1C(=O)OCc1cccc(Oc2ccccc2)c1 (stereo unspecified) |  | inconclusive: 20 µM
6 | CC[C@H](c1ccc(O)cc1)[C@@H](CC)c1ccc(O)cc1 |  | inconclusive: 20 µM
